Laboratory results taken from PubChem BioAssay AID624256 (NMMLSC, 2012).
Some of the results follow.

assay: induction of myeloid progenitor differentiation, primary screen, cell-based, flow cytometry, MLPCN library (AID 624256); conditions: ER-HoxA9 myeloid progenitors, lysozyme-GFP differentiation, measured here: differentiation confirmed by MAC1 staining, at 10 µM, stronger effect = higher value;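 also: cells exposed to compound for four days before flow analysis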

Row | SMILES | GFP+ MAC1+ double positive [%]
1 | CC(C)(C)n1nnnc1C(c1ccccc1OC(F)(F)F)N1CCC(n2c(=O)[nH]c3ccccc32)CC1 (stereo not given) | 1.6
2 | COc1cc(C(=O)NCC2(N(C)C)CCCCC2)ccc1OC(F)F | 0.2
3 | CCOC(=O)N1CCC(Nc2cccc(C)c2)CC1 | 0.9
4 | O=c1[nH]c2ccccc2n1C1CCN(C(c2cccc3ccccc23)c2nnnn2C2CCCC2)CC1 (stereo not given) | 0.6
5 | O=c1[nH]c2ccccc2n1C1CCN(C(c2ccccc2)c2nnnn2C2CCCCC2)CC1 (stereo not given) | 0.5
6 | COc1ccc(NC2CCN(CCc3ccccc3)CC2)c(OC)c1 | 7.8
7 | CCOC(=O)N1CCC(Nc2ccc(F)cc2)CC1 | 0.5
8 | O=C(NCC1(N2CCCCC2)CCCCC1)c1ccc(F)cc1 | 0.5
9 | O=P1(N(CCCl)CCCl)SCCCS1 | 1.9
10 | CCCCn1nnnc1C(c1cc2ccccc2o1)N1CCC(n2c(=O)[nH]c3ccccc32)CC1 (stereo not given) | 1.1
11 | CCCCOc1ccc(C(=O)NCC2(N3CCOCC3)CCCCC2)cc1 | 0.6
12 | O=C1CCN(Cc2ccccc2)CC1 | 1.7
13 | CC(C)(C)n1nnnc1C(c1ccccc1)N1CCC(n2c(=O)[nH]c3ccccc32)CC1 (stereo not given) | 0.6
14 | CCOc1ccc(C)cc1CN(CCCl)CCCl | 0.8
15 | COc1ccc(Cl)cc1C(=O)NCC1(N2CCOCC2)CCCCC1 | 0.2
16 | O=C(OC1CN2CCC1CC2)C1c2ccccc2Oc2ccccc21 (stereo not given) | 4
17 | O=c1[nH]c2ccccc2n1C1CCN(C(c2cc3ccccc3o2)c2nnnn2C2CCCCC2)CC1 (stereo not given) | 1.1
18 | N#CC1(Nc2ccccc2)CCN(Cc2ccccc2)CC1 | 0.4

Row | SMILES | GFP+ MAC1+ double positive [%]
19 | O=C(NCC1(N2CCCCC2)CCCCC1)c1ccc(Cl)s1 | 1
20 | CCCCn1nnnc1C(c1ccc(OC)cc1)N1CCC(n2c(=O)[nH]c3ccccc32)CC1 (stereo not given) | 2.2
21 | CCOC(=O)N1CCC(Nc2ccc(OC)cc2)CC1 | 0.1
22 | Cc1cc(C)cc(N(C(=O)c2ccccc2)C2CCN(C(=O)OC(C)(C)C)CC2)c1 | 0.8
23 | O=c1[nH]c2ccccc2n1C1CCN(C(c2ccccc2OC(F)(F)F)c2nnnn2C2CCCCC2)CC1 (stereo not given) | 1
24 | O=C(NCC1(N2CCCCC2)CCCCC1)c1ccc(Cl)nc1 | 0.7
25 | O=C(NCC1(N2CCOCC2)CCCCC1)c1cc2ccccc2o1 | 0.7
26 | Cc1cccc(NC2(C#N)CCN(Cc3ccccc3)CC2)c1 | 1.2
27 | CSc1ccccc1C(=O)NCC1(N2CCCCC2)CCCCC1 | 0.3
28 | CCC(c1nnnn1C1CCCC1)N1CCC(n2c(=O)[nH]c3ccccc32)CC1 (stereo not given) | 0.7
29 | COc1ccc(C(=O)NCC2(N3CCCCC3)CCCCC2)c(OC)c1OC | 0.3
30 | CC(C)(C)OC(=O)N1CCC(N(C(=O)c2ccccc2)c2ccc(F)cc2)CC1 | 0.7
31 | COc1ccc(C(=O)NCC2(N3CCCCC3)CCCCC2)cc1 | 1.7
32 | CCCCn1nnnc1C(c1cccs1)N1CCC(n2c(=O)[nH]c3ccccc32)CC1 (stereo not given) | 1.8
33 | CCCCn1nnnc1C(CC)N1CCC(n2c(=O)[nH]c3ccccc32)CC1 (stereo not given) | 0.4
34 | O=C(NCC1(N2CCCCC2)CCCCC1)c1cccs1 | 0.2
35 | O=C(NCC1(N2CCCCC2)CCCCC1)c1ccc(=O)[nH]c1 | 1
